Data from the supplement of paper PMC10849652.
The other results are listed elsewhere or left out.

Sequences of proteins named here, by UniProt entry; tags and fusion partners are left off. A change or cut given only in a name is not applied to a line headed by its entry.
UniProt Q8NFQ8: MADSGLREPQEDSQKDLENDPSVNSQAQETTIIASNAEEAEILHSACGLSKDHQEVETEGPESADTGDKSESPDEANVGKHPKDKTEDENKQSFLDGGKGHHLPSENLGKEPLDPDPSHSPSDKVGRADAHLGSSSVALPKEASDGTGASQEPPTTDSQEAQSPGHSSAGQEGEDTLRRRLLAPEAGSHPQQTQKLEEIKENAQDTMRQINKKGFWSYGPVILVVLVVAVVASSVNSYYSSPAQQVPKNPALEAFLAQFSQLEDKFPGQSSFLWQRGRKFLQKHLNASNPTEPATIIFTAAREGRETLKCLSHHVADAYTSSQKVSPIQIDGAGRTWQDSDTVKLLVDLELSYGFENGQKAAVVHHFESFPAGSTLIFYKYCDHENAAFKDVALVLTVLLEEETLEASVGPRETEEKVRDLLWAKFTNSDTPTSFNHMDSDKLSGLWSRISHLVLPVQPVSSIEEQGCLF
UniProt P29144: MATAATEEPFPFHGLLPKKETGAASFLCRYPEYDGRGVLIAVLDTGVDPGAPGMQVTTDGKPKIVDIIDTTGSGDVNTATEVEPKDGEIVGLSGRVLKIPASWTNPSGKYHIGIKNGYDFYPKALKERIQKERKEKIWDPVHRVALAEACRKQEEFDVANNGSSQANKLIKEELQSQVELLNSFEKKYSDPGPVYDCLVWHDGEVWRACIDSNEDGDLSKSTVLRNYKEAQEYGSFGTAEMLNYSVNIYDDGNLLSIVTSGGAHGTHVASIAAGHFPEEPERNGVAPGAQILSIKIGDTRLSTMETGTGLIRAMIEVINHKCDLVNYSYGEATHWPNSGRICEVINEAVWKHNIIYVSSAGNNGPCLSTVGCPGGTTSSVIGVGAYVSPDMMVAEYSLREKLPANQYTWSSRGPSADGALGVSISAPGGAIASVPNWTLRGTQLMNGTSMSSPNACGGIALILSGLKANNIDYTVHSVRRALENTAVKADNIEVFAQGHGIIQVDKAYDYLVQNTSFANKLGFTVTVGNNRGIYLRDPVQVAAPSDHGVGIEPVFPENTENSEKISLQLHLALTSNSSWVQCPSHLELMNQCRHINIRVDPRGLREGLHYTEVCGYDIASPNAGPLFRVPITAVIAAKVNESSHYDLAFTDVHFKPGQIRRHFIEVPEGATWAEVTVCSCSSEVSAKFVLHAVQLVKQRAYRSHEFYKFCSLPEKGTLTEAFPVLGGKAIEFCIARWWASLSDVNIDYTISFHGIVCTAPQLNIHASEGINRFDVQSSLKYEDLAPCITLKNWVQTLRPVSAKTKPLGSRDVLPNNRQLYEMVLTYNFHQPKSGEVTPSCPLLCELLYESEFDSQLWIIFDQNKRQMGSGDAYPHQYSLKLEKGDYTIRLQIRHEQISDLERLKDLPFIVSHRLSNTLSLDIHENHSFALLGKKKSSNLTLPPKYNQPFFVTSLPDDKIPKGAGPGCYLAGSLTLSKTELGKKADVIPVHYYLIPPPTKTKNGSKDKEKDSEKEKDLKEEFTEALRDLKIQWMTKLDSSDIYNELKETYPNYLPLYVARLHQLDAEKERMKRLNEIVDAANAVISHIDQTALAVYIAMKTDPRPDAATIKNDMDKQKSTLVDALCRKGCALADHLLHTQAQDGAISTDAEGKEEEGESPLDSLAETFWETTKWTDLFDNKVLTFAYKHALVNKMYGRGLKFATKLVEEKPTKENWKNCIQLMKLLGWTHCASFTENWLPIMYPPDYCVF
UniProt Q9UPQ9, whole entry, looked up: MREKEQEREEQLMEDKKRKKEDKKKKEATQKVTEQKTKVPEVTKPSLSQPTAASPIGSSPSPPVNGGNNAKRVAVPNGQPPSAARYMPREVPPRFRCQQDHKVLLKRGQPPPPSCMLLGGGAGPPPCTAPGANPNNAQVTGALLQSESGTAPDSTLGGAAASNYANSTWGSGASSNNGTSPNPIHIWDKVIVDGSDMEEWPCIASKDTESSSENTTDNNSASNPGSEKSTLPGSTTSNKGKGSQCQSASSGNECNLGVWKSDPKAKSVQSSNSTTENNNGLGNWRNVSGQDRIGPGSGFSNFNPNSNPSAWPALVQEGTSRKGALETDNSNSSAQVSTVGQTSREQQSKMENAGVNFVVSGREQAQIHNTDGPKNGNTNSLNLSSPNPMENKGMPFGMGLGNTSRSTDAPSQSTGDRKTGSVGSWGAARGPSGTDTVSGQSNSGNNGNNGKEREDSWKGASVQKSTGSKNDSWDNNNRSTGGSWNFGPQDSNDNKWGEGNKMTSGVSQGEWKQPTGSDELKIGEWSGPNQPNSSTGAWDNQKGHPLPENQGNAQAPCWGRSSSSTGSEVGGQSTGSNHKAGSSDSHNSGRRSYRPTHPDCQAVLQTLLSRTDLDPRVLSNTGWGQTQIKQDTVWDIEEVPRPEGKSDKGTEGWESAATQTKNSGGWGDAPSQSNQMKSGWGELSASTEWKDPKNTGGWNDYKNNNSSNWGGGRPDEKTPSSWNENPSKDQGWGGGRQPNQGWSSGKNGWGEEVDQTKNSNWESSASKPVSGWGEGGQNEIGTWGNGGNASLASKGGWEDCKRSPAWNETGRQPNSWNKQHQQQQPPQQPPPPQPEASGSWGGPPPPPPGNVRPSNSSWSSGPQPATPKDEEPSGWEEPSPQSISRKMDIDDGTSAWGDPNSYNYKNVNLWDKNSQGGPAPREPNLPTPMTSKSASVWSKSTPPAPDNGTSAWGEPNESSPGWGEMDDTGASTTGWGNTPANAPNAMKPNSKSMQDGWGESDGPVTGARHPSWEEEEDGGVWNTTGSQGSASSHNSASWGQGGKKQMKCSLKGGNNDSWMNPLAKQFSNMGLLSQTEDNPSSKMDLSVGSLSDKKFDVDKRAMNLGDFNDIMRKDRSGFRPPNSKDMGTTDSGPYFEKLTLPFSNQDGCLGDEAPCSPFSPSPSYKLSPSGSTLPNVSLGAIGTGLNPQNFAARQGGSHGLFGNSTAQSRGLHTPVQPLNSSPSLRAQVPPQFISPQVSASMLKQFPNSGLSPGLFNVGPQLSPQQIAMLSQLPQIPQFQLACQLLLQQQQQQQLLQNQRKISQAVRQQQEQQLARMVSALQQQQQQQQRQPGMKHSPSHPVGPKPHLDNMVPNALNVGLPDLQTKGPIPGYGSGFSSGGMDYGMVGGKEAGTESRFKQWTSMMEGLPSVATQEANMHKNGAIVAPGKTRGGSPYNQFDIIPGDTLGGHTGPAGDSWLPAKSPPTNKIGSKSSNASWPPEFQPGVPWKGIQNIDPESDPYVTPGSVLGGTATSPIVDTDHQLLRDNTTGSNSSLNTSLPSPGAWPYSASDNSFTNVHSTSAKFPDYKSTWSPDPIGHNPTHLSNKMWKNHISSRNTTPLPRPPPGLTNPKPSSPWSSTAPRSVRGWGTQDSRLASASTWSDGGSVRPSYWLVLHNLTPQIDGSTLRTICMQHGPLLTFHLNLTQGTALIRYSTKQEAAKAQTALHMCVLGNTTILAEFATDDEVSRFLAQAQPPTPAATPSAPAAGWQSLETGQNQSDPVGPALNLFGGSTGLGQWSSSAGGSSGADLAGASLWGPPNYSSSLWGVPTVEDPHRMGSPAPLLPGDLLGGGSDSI
UniProt Q15628: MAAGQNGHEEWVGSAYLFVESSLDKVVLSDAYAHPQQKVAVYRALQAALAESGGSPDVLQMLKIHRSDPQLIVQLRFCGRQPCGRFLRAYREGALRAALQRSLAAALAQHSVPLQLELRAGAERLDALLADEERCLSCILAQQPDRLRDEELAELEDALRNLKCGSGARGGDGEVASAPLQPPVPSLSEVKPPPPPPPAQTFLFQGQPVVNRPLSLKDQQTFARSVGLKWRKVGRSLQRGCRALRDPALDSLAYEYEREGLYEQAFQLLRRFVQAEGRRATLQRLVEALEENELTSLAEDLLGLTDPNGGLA
UniProt Q9NZR1: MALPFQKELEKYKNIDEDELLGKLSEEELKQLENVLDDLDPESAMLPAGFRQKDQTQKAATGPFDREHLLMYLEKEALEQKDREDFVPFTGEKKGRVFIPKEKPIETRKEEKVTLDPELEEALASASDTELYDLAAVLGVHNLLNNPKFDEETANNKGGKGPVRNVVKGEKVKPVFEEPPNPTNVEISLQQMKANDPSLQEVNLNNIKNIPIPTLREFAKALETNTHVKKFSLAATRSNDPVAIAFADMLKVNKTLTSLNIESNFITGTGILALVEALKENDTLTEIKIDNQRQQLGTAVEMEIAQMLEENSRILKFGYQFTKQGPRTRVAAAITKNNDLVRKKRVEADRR
UniProt Q15785: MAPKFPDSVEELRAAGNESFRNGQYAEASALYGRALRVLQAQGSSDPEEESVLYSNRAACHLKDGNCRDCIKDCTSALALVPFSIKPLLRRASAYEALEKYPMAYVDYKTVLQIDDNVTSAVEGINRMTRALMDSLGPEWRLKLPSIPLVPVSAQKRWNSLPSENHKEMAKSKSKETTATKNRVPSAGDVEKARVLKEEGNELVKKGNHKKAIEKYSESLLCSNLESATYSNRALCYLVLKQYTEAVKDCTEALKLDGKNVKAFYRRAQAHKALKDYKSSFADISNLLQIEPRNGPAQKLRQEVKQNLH
UniProt P42166: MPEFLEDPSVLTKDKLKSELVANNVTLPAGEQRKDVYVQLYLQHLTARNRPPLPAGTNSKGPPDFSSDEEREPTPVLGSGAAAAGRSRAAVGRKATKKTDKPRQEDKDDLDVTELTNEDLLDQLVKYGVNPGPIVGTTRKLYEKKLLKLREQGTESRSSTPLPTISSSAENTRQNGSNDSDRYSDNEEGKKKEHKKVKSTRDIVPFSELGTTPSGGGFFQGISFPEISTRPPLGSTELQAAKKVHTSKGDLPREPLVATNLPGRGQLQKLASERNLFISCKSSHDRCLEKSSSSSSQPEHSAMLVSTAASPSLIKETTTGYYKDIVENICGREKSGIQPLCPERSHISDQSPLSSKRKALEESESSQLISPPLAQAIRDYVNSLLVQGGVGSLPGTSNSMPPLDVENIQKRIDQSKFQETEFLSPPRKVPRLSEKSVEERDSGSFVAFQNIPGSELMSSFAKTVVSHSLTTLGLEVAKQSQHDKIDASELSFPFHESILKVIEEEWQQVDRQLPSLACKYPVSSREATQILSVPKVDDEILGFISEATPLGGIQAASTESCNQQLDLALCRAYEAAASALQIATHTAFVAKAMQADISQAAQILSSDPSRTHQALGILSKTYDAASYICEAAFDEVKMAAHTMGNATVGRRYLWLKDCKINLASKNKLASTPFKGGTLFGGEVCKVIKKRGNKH
UniProt P20333, whole entry, looked up: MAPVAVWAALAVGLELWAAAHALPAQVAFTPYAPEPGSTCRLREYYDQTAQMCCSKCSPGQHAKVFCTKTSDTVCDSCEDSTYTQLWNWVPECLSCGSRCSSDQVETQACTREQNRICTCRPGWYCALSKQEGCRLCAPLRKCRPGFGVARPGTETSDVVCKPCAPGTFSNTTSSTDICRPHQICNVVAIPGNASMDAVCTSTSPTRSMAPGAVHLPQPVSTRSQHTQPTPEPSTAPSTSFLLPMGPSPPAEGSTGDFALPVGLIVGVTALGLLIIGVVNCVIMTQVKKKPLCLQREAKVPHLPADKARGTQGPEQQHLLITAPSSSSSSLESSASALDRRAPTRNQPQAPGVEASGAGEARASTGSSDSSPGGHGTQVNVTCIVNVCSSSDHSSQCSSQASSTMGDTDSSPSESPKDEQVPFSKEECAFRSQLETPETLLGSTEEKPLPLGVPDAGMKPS

Columns and labels:
Test in all cases: log2 fold change, soluble protein after heating vs DMSO (PISA); higher = thermal stabilisation; K562 lysate, 10 uM; active = over 0.2 and 3.5 SD of the protein, either way, in both replicates (recomputed)
vemurafenib = compound: CCCS(=O)(=O)Nc1ccc(F)c(C(=O)c2c[nH]c3ncc(-c4ccc(Cl)cc4)cc23)c1F [vemurafenib]
Procedure, shortened: (§1)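 To prepare the extract, K562 pellets were dounce-homogenised in PBS pH 7.4 with 1 mM MgCl2, giving crude material at 1 mg/mL protein. This was treated with 10 μM compound for 30 min, then heated in aliquots for 3 min over 48°C-58°C before pooling and addition of NP-40 to 0.5% at 4°C. Centrifugation at 21,000xg for 90 min left soluble protein in the supernatant, which TMTpro 16plex LC-MS/MS quantified with equalised channel sums. Results are log-two fold changes in thermal stability compared with solvent controls, from duplicates.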

[1] = compound: CCCS(=O)(=O)Nc1ccc(F)c(C(=O)c2c[nH]c3ncc(Cl)cc23)c1F
Procedure, shortened: as §1

barasertib = compound: CCN(CCCOc1ccc2c(Nc3cc(CC(=O)Nc4cccc(F)c4)[nH]n3)ncnc2c1)CCOP(=O)(O)O [barasertib]
Procedure, shortened: as §1

[2] = compound: CC[C@@H]1C(=O)N(C)c2cnc(Nc3ccc(C(=O)NC4CCN(C)CC4)cc3OC)nc2N1C1CCCC1
Procedure, shortened: as §1

volasertib = compound: CC[C@@H]1C(=O)N(C)c2cnc(Nc3ccc(C(=O)N[C@H]4CC[C@H](N5CCN(CC6CC6)CC5)CC4)cc3OC)nc2N1C(C)C [volasertib]
Procedure, shortened: as §1

[3] = compound: CCn1c(C(=O)N(C2CC2)C2CC2)cc2c3c(ncn3C)c(Nc3cc(C)n(C)n3)nc21
Procedure, shortened: as §1

[4] = compound: CCn1cc(-c2ccnc3[nH]c(-c4cccc(CN(C)C)c4)cc23)c(-c2ccc(NC(=O)N(C)C)cc2)n1
Procedure, shortened: as §1

[5] = compound: CN1CCC(CNc2ccc3ncc(-c4cccc(OC(F)(F)F)c4)n3n2)CC1
Procedure, shortened: as §1

saracatinib = compound: CN1CCN(CCOc2cc(OC3CCOCC3)c3c(Nc4c(Cl)ccc5c4OCO5)ncnc3c2)CC1 [saracatinib]
Procedure, shortened: as §1

sotrastaurin = compound: CN1CCN(c2nc(C3=C(c4c[nH]c5ccccc45)C(=O)NC3=O)c3ccccc3n2)CC1 [sotrastaurin]
Procedure, shortened: as §1

alvocidib = compound: CN1CC[C@H](c2c(O)cc(O)c3c(=O)cc(-c4ccccc4Cl)oc23)[C@H](O)C1 [alvocidib]
Procedure, shortened: as §1

Tubastatin A = compound: CN1CCc2c(c3ccccc3n2Cc2ccc(C(=O)NO)cc2)C1 [Tubastatin A]
Procedure, shortened: as §1

[6] = compound: CNC(=O)C1=CC=CC=C1NC2=NC(=NC=C2Cl)NC3=C(C=C(C=C3)N4CCOCC4)OC
Procedure, shortened: as §1

defactinib = compound: CNC(=O)c1ccc(Nc2ncc(C(F)(F)F)c(NCc3nccnc3N(C)S(C)(=O)=O)n2)cc1 [defactinib]
Procedure, shortened: as §1

[7] = compound: CNc1nc(-c2ccc3c(N)n[nH]c3c2)cc(N2C[C@@H](C(=O)NC3CCCCC3)CC[C@H]2C)n1
Procedure, shortened: as §1

encorafenib = compound: COC(=O)N[C@@H](C)CNc1nccc(-c2cn(C(C)C)nc2-c2cc(Cl)cc(NS(C)(=O)=O)c2F)n1 [encorafenib]
Procedure, shortened: as §1

[8] = compound: COC(=O)[C@H](CCSC)NC(=O)C1=C(C=C(C=C1)NC[C@H](CS)N)C2=CC=CC=C2
Procedure, shortened: as §1

alisertib = compound: COc1cc(Nc2ncc3c(n2)-c2ccc(Cl)cc2C(c2c(F)cccc2OC)=NC3)ccc1C(=O)O [alisertib]
Procedure, shortened: as §1

[9] = compound: COc1cc2nc(-c3cc(F)ccc3O)nc(N[C@@H]3CNC[C@H]3C(C)(C)O)c2cc1OC
Procedure, shortened: as §1

gefitinib = compound: COc1cc2ncnc(Nc3ccc(F)c(Cl)c3)c2cc1OCCCN1CCOCC1 [gefitinib]
Procedure, shortened: as §1

| Target | log2 fold change (vemurafenib) | log2 fold change [1] | log2 fold change (barasertib) | log2 fold change [2] | log2 fold change (volasertib) | log2 fold change [3] | log2 fold change [4] | log2 fold change [5] | log2 fold change (saracatinib) | log2 fold change (sotrastaurin) | log2 fold change (alvocidib) | log2 fold change (Tubastatin A) | log2 fold change [6] | log2 fold change (defactinib) | log2 fold change [7] | log2 fold change (encorafenib) | log2 fold change [8] | log2 fold change (alisertib) | log2 fold change [9] | log2 fold change (gefitinib) |
| --- | --- | --- | --- | --- | --- | --- | --- | --- | --- | --- | --- | --- | --- | --- | --- | --- | --- | --- | --- | --- |
| TOR1AIP2 (UniProt Q8NFQ8) | inactive: -0.019 | inactive: -0.01 | inactive: -0.017 | inactive: -0.004 | inactive: -0.006 | inactive: -0.013 | inactive: 0.004 | inactive: 0.012 | inactive: 0.033 | inactive: -0.002 | inactive: -0.032 | inactive: -0.001 | inactive: 0.019 | inactive: 0.01 | inactive: 0.002 | inactive: 0.014 | inactive: -0.018 | inactive: 0.019 | inactive: -0.025 | inactive: -0.011 |
| TPP2 (UniProt P29144) | inactive: -0.015 | inactive: 0.01 | inactive: -0.024 | inactive: -0.016 | inactive: -0.023 | inactive: 0.009 | inactive: 0.025 | inactive: -0.012 | inactive: -0.016 | inactive: -0.009 | inactive: 0.018 | inactive: -0.028 | inactive: -0.014 | inactive: -0.014 | inactive: -0.03 | inactive: 0 | inactive: 0.068 | inactive: -0.02 | inactive: 0 | inactive: 0.008 |
| TNRC6B (UniProt Q9UPQ9) | inactive: 0.076 | inactive: 0.04 | inactive: 0.054 | inactive: 0.099 | inactive: -0.022 | inactive: 0.009 | inactive: 0.007 | inactive: 0.036 | inactive: 0.069 | inactive: 0.066 | inactive: 0.004 | inactive: -0.065 | inactive: -0.064 | inactive: 0.069 | inactive: -0.03 | inactive: 0.034 | inactive: 0.016 | inactive: -0.024 | inactive: 0.041 | inactive: 0.003 |
| TRADD (UniProt Q15628) | active: -0.611 | inactive: 0.052 | inactive: -0.002 | inactive: 0.07 | inactive: -0.023 | inactive: 0.065 | inactive: 0.014 | inactive: 0.001 | inactive: 0.011 | inactive: -0.023 | inactive: -0.029 | inactive: -0.066 | inactive: 0.021 | inactive: -0.092 | inactive: 0.021 | inactive: -0.012 | inactive: -0.241 | inactive: 0.009 | inactive: 0.004 | inactive: -0.03 |
| TMOD2 (UniProt Q9NZR1) | inactive: 0.055 | inactive: 0.003 | inactive: 0.002 | inactive: 0.014 | inactive: -0.026 | inactive: 0.037 | inactive: -0.02 | inactive: 0.005 | inactive: -0.048 | inactive: -0.047 | inactive: -0.017 | inactive: -0.007 | inactive: 0.006 | inactive: -0.016 | inactive: -0.007 | inactive: 0.018 | inactive: 0.012 | inactive: 0.023 | inactive: -0.016 | inactive: -0.018 |
| TOMM34 (UniProt Q15785) | inactive: 0.038 | inactive: 0.021 | inactive: 0.014 | inactive: 0.009 | inactive: -0.07 | inactive: 0.019 | inactive: -0.038 | inactive: -0.018 | inactive: -0.005 | inactive: 0.021 | inactive: 0.021 | inactive: -0.105 | inactive: 0.04 | inactive: 0.018 | inactive: 0.038 | inactive: 0.027 | inactive: -0.004 | inactive: 0.021 | inactive: -0.001 | inactive: -0.022 |
| TMPO (UniProt P42166) | inactive: 0.027 | inactive: -0.004 | inactive: 0.04 | inactive: -0.041 | inactive: -0.025 | inactive: 0.033 | inactive: 0.026 | inactive: 0.003 | inactive: -0.017 | inactive: -0.161 | inactive: -0.196 | inactive: -0.145 | inactive: 0.002 | inactive: 0.028 | inactive: -0.003 | inactive: 0.011 | inactive: 0.174 | inactive: -0.024 | inactive: 0.012 | inactive: 0.011 |
| TNFRSF1B (UniProt P20333) | inactive: 0.077 | inactive: -0.064 | inactive: -0.052 | inactive: 0.028 | inactive: 0.108 | inactive: -0.023 | inactive: -0.204 | inactive: 0.136 | inactive: 0.03 | inactive: 0.013 | inactive: -0.092 | inactive: -0.005 | inactive: 0.016 | inactive: 0.12 | inactive: 0.134 | inactive: 0.111 | inactive: -0.018 | inactive: -0.145 | inactive: -0.001 | inactive: 0.075 |

2 entries from above, tab-delimited:
Target	log2 fold change (vemurafenib)	log2 fold change [1]	log2 fold change (barasertib)	log2 fold change [2]	log2 fold change (volasertib)	log2 fold change [3]	log2 fold change [4]	log2 fold change [5]	log2 fold change (saracatinib)	log2 fold change (sotrastaurin)	log2 fold change (alvocidib)	log2 fold change (Tubastatin A)	log2 fold change [6]	log2 fold change (defactinib)	log2 fold change [7]	log2 fold change (encorafenib)	log2 fold change [8]	log2 fold change (alisertib)	log2 fold change [9]	log2 fold change (gefitinib)
TOMM34 (UniProt Q15785)	inactive: 0.038	inactive: 0.021	inactive: 0.014	inactive: 0.009	inactive: -0.07	inactive: 0.019	inactive: -0.038	inactive: -0.018	inactive: -0.005	inactive: 0.021	inactive: 0.021	inactive: -0.105	inactive: 0.04	inactive: 0.018	inactive: 0.038	inactive: 0.027	inactive: -0.004	inactive: 0.021	inactive: -0.001	inactive: -0.022
TNFRSF1B (UniProt P20333)	inactive: 0.077	inactive: -0.064	inactive: -0.052	inactive: 0.028	inactive: 0.108	inactive: -0.023	inactive: -0.204	inactive: 0.136	inactive: 0.03	inactive: 0.013	inactive: -0.092	inactive: -0.005	inactive: 0.016	inactive: 0.12	inactive: 0.134	inactive: 0.111	inactive: -0.018	inactive: -0.145	inactive: -0.001	inactive: 0.075
